The assay addresses TssC1, produced in P. aeruginosa (P. aeruginosa) (UniProt Q9I748). The experiment in a line: negative-stain electron microscopy of purified sheaths; TssB1C1 sheaths (0.1 mg/ml) purified from P. aeruginosa, stained with 2 % uranyl acetate; 12-fold symmetry; both purified.

Amino acid sequences for entries named in this document (tags omitted). Residues count along the entry.
UniProt Q9I748, residues 38-498: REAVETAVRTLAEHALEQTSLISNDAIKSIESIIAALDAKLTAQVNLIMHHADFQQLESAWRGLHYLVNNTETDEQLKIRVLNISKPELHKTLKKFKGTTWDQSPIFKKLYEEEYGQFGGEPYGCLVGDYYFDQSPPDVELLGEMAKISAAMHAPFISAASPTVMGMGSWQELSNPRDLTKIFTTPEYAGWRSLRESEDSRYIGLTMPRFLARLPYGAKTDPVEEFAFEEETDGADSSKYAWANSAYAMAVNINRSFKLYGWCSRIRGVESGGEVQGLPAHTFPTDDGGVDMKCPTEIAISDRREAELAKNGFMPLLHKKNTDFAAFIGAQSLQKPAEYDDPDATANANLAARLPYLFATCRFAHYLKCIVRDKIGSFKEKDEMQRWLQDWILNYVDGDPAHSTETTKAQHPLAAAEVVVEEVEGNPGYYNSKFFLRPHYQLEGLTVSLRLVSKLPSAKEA

Results are given in words; binding and its absence hold for the method and conditions named. Some results given as binding are weak or reduced against the parent protein; the word gives no strength. Sequences can lack the tags named with a protein.

B1: P. aeruginosa TssB1 (H1-T6SS sheath protein), produced in E. coli (natural protein)
chain: MGSTTSSQKFIARNRAPRVQIEYDVELYGAEKKVQLPFVMGVMADLAGKPAEPQAAVADRKFLEIDVDNFDARLKAMKPRVAFNVPNVLTGEGNLSLDITFESMDDFSPAAVARKVDSLNKLLEARTQLANLLTYMDGKTGAEEMIMKAIKDPALLQALASAPKPKDDEPQA
notes: TssB1 of the H1-T6SS cluster of Pseudomonas aeruginosa; 172 residues in total (132 traced; M1-S3 and M136-A172 not traced); also called VipA/IglA homologue; source: E. coli B834(DE3), co-produced with TssC1 from pET28-B1C1, purified as TssB1C1 tubes (size exclusion chromatography)
Turning to B1, the binding entry is reported as “binds”.

These data come from article PMC5807055, “Atomic Structure of Type VI Contractile Sheath from Pseudomonas aeruginosa” (Structure(London, England:1993), 2018).
